The target of test [1] is T1, Klebsiella pneumoniae CbpM (residues 2-101) (Klebsiella pneumoniae (strain ATCC 700721/MGH 78578)).
T1 sequence: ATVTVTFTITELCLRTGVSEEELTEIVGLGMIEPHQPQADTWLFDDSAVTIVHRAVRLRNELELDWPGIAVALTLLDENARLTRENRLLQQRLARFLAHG
Nature of the test: SEC + other: dynamic light scattering; CbpM-CbpA^Jdom complex in solution; conditions not given; both purified.

For test [2] the target is unchanged. The experiment in a line: crystal structure; K. pneumoniae CbpM with E. coli CbpA^Jdom, complex separated from excess CbpA^Jdom on Superdex 75; hanging drop, 0.1 M HEPES pH 7, 20% (w/v) PEG 8K; 1.87 Å; both purified.

No constants are given. Whether binding was seen depends on the method and setting. Binding calls can cover weak binding; strength is not graded here.

Turning to “J-domain of E. coli CbpA (CbpA^Jdom) (domain or fragment)”, the binding result in test [1] and in test [2] was “binds” each time.

The values are drawn from paper PMC4063869, “Structure of CbpA J-Domain Bound to the Regulatory Protein CbpM Explains Its Specificity and Suggests Evolutionary Link between CbpM and Transcriptional Regulators” (PLoS ONE, 2014).
